# Data as given in PubChem BioAssay AID1259308 (NCATS, 2017)
# Aim: 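Genes whose loss raises luciferase production in HEK293 cells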 (primary screen)
# System: human HEK293 embryonic kidney cells stably expressing firefly luciferase (HEK-CMV-Luc2-Hygro)
# Reagent: single siRNA against human genes, 0.8 pmol siRNA per well
# Timing: 72 h
# Measurement: 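Reporter luminescence and viable-cell signal on separate replicate plates, given as percent of non-targeting control and median/MAD z-scores, plus per-cell luciferase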
# Reading the numbers: total luciferase, z-score and total luciferase, % of control: higher = more reporter protein produced; luciferase per cell, z-score: higher = more reporter output per viable cell
# Rule for the call: 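Active when the median/MAD z-score for overall luciferase is greater than 3; a gene was taken forward for validation with new siRNAs if at least two of its three siRNAs passed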
# Calls: active = raised luciferase; inactive = no rise
# In all, the deposit lists about 59,000 reagents; shown is a part drawn at random. In the full data, about 1,510 (2.6%) were called active. 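Calls use total luciferase alone and ignore viability, so some active siRNAs may act by altering cell number.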 Entries without a mark were called inactive. Further read-outs or replicates are left out here.
Target gene,PubChem SID,"total luciferase, z-score","total luciferase, % of control","luciferase per cell, z-score"
ZNF343 (zinc finger protein 343),SID160748755,1.4,110,1.35
ZNF343 (zinc finger protein 343),SID160748756,0.773,97.3,1.07
ZNF343 (zinc finger protein 343),SID160748757,0.198,85.8,0.0838
FASLG (Fas ligand),SID160719072,-0.823,65.5,-0.737
FASLG (Fas ligand),SID160719084,1.36,109,1.64
FASLG (Fas ligand),SID160719095,-0.317,75.6,-0.566
SNX22 (sorting nexin 22),SID160749615,-0.0829,80.2,-0.58
SNX22 (sorting nexin 22),SID160749616,-0.462,72.7,2.2
SNX22 (sorting nexin 22),SID160749617,-0.318,75.6,0.29
DLGAP1-AS1 (DLGAP1 antisense RNA 1),SID160734071,-0.00258,81.8,-0.317
DLGAP1-AS1 (DLGAP1 antisense RNA 1),SID160770415,2.51,132,1.98
DLGAP1-AS1 (DLGAP1 antisense RNA 1),SID160770416,3.03 (active),142,2.31
GDF9 (growth differentiation factor 9),SID160770276,0.942,101,1.49
GDF9 (growth differentiation factor 9),SID160770285,-0.827,65.4,0.0215
GDF9 (growth differentiation factor 9),SID160770295,2.65,135,2.49
DUOXA1 (dual oxidase maturation factor 1),SID160753731,2.3,128,1.41
DUOXA1 (dual oxidase maturation factor 1),SID160753732,0.321,88.3,0.44
DUOXA1 (dual oxidase maturation factor 1),SID160753733,1.57,113,1.09
NUP85 (nucleoporin 85),SID160749741,1.02,102,1.91
NUP85 (nucleoporin 85),SID160749742,-0.00104,81.9,-0.117
NUP85 (nucleoporin 85),SID160749743,-1.13,59.4,-0.437
CYP19A1 (cytochrome P450 family 19 subfamily A member 1),SID160751985,0.0426,82.7,0.38
CYP19A1 (cytochrome P450 family 19 subfamily A member 1),SID160751995,-0.753,66.9,-0.631
CYP19A1 (cytochrome P450 family 19 subfamily A member 1),SID160752006,2.17,125,1.46

Records above marked active (1):
Target gene,PubChem SID,"total luciferase, z-score","total luciferase, % of control","luciferase per cell, z-score"
DLGAP1-AS1 (DLGAP1 antisense RNA 1),SID160770416,3.03 (active),142,2.31
